Data as given in PMC11471967.
Results are given in words; binding and its absence hold for the method and conditions named. For part of these data: Binding seen in cells or lysates may run through a third protein. Some binding calls cover weakened binding; strength is not graded here.

Amino acid sequences for entries named in this document (tags omitted). A change or cut given only in a name is not applied to a line headed by its entry. Residues count along the entry.
UniProt Q04206: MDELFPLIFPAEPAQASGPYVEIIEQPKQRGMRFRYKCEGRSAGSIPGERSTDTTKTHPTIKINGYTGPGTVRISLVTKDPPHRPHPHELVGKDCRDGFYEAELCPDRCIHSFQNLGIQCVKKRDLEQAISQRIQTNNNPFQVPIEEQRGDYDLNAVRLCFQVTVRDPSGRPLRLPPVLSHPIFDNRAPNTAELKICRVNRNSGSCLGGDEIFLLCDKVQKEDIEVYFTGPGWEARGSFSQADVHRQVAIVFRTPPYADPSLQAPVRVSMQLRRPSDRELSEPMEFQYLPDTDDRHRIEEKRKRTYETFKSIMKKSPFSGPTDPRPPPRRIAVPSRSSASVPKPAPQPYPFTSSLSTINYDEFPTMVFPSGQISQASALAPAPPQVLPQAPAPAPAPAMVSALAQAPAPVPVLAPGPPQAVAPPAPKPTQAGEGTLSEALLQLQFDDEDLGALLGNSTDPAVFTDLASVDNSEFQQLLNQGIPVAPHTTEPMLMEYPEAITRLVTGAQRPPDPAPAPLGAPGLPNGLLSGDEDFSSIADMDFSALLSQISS
UniProt P19838, residues 1-433: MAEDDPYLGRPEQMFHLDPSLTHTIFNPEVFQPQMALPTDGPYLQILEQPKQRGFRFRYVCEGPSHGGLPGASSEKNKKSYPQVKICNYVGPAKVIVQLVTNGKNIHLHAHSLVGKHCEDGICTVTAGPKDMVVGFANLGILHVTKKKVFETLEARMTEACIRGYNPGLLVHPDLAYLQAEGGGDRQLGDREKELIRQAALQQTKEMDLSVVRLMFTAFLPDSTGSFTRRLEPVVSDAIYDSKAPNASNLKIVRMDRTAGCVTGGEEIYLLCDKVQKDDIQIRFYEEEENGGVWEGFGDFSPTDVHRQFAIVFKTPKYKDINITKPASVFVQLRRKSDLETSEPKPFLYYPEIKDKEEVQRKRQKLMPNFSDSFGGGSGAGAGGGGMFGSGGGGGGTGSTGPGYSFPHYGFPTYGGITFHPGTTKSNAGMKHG
UniProt P35396: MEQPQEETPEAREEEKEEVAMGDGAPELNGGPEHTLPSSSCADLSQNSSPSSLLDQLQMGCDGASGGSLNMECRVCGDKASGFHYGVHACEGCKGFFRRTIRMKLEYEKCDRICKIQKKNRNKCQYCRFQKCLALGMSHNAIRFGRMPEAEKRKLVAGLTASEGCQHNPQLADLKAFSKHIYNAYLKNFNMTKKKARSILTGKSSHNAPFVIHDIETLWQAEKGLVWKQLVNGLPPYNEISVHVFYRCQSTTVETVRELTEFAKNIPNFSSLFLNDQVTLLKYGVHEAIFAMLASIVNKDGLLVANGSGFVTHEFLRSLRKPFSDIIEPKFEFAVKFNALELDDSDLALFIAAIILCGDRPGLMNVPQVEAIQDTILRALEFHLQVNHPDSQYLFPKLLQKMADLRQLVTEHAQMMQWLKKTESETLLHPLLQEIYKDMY
UniProt Q03181: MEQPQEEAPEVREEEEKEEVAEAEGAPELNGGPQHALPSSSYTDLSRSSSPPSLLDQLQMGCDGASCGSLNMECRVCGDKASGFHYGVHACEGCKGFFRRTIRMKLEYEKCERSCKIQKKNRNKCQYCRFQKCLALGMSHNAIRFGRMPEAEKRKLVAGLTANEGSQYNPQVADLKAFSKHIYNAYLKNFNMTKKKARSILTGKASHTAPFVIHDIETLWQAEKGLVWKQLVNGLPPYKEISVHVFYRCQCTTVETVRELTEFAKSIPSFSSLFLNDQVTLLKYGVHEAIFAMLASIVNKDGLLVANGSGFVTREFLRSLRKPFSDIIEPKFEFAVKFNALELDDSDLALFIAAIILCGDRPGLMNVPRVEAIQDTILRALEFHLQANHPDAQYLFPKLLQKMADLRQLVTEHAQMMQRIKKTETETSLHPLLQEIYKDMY

Experiments:
[1] = biological target: RelA (p65), in nuclear extracts of human CTLs (human (endogenous in human CTLs)) (UniProt Q04206); assay: native gel or EMSA; nuclear extracts (5 μg) of human CTLs with NF-κB oligonucleotide, 4% nondenaturing polyacrylamide gel, then transfer and Western blot for RelA, p50 or PPARδ
[2] = biological target: RelA (p65), in nuclear extracts of human CTLs (human (endogenous in human CTLs)) (UniProt Q04206); assay: co-IP; nuclear extracts from human or mouse CTLs, diluted in 20 mmol/L HEPES pH 7.5, 150 mmol/L NaCl, 1% Triton X-100, 1 mmol/L EDTA, 10% glycerol; anti-p65 or anti-PPARδ antibody and protein A/G agarose, 4°C overnight; Western blot; cells untreated, treated with GW501516, PPARδ siRNA, PPARδ plasmid, or Ppard−/−
[3] = biological target: RelA (p65), in nuclear extracts of mouse CTLs (mouse (endogenous in murine CTLs)) (UniProt Q04207); assay: as above
[4] = biological target: GST-tagged NF-κB1 p50 protein (UniProt P19838); assay: pull-down; GST-tagged p50 incubated with p65 or PPARδ or both in coimmunoprecipitation buffer with Glutathione Sepharose 4B, 4°C, 3 hours; Western blot; both purified
[5] = biological target: T1, RelA (p65), in nuclear extracts of mouse CTLs (mouse (endogenous in murine CTLs)), Q04207; assay: co-IP; nuclear extracts from human or mouse CTLs, diluted in 20 mmol/L HEPES pH 7.5, 150 mmol/L NaCl, 1% Triton X-100, 1 mmol/L EDTA, 10% glycerol; anti-p65 or anti-PPARδ antibody and protein A/G agarose, 4°C overnight; Western blot; cells untreated, treated with GW501516, PPARδ siRNA, PPARδ plasmid, or Ppard−/−; details: remark: other sources report otherwise
T1 chain: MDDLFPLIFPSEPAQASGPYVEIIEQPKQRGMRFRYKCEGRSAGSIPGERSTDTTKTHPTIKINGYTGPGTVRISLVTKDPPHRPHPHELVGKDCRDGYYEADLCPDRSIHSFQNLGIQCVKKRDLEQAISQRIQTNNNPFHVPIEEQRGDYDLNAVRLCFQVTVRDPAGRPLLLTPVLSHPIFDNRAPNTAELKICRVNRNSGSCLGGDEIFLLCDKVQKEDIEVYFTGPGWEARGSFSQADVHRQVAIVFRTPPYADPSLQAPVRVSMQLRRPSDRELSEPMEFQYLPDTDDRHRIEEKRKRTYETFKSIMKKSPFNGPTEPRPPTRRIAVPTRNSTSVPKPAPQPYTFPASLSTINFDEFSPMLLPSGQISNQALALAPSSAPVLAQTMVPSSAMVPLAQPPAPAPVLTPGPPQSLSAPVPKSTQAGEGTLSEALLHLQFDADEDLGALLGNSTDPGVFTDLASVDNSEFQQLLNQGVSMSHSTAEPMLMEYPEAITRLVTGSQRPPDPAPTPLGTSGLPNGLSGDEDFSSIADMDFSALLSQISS

NF-κB1/p50, in nuclear extracts of human CTLs (from UniProt P19838 1-433)
binding [1]: binds
binding [2]: binds

PPARδ, in nuclear extracts of mouse CTLs (from UniProt P35396 1-440)
binding [3]: binds

purified PPARδ (from UniProt Q03181 1-441)
binding [4]: no binding

purified p65 (RelA) (from UniProt Q04206 1-551)
binding [4]: binds

B1: NF-κB1/p50, in nuclear extracts of mouse CTLs, P25799 1-431 (protein)
chain: MADDDPYGTGQMFHLNTALTHSIFNAELYSPEIPLSTDGPYLQILEQPKQRGFRFRYVCEGPSHGGLPGASSEKNKKSYPQVKICNYVGPAKVIVQLVTNGKNIHLHAHSLVGKHCEDGVCTVTAGPKDMVVGFANLGILHVTKKKVFETLEARMTEACIRGYNPGLLVHSDLAYLQAEGGGDRQLTDREKEIIRQAAVQQTKEMDLSVVRLMFTAFLPDSTGSFTRRLEPVVSDAIYDSKAPNASNLKIVRMDRTAGCVTGGEEIYLLCDKVQKDDIQIRFYEEEENGGVWEGFGDFSPTDVHRQFAIVFKTPKYKDVNITKPASVFVQLRRKSDLETSEPKPFLYYPEIKDKEEVQRKRQKLMPNFSDSFGGGSGAGAGGGGMFGSGGGGGSTGSPGPGYGYSNYGFPPYGGITFHPGVTKSNAGVTHG
binding [5]: binds
